Measured values taken from patent EP4549150A1, “RESIN COMPOSITION FOR THREE-DIMENSIONAL PRINTING” (Cubicure GmbH, priority 2023, dated 2025).

Experiment: Photo-DSC photo-reactivity study
Type: physicochemical
Conditions: for DBC: double bond conversion calculated from measured ΔH and theoretical enthalpy 56 kJ mol^-1 for methacrylates; for ΔH: heat of polymerization, 50°C, 365 nm LED 17 mW cm^-2, 1% w/w TPO-L, integrated 0 to 200 s, * = no heat of polymerization detected
Description: Photo-DSC (differential scanning calorimetry) studies were performed using a Netzsch DSC 204 F1 containing an autosampler and coupled to an intracooler IC85 cooling device. The system was connected to an Omnicure LX500 controller with a 365 nm LED and the power intensity was set on the sample at 17 mW cm^-2 (measured using a Thorlabs SMC100 powermeter and the corresponding S310C thermal power head). The test samples were mixed in a vortex mixer for 3 minutes with 1% w/w of TPO-L (a commercially available photoinitiator) and then […] were transferred to an aluminum crucible without lid. All experiments were conducted under Nitrogen atmosphere (flow = 20 mL/min) at 50°C and the samples were irradiated for 5 minutes. Triplicate DSC measurements were performed for each example. The measured heat of polymerization (ΔH) was calculated by integrating the area under the curve from 0 to 200 s.
Here, tmax is the time when maximum heat evolution was reached and t95% corresponds to the point when 95% of the total heat of polymerization has evolved (0 s corresponds to the moment when light is triggered). The double bound conversion (DBC) was calculated from the experimentally obtained heat of polymerization and the theoretical polymerization enthalpy indicated in the literature (56 kJ mol^-1 for methacrylates).

## C=C(C)C(=O)OC1CCCCC1O (centres unmarked) [Ex1, 2-hydroxycyclohexyl methacrylate]
  DBC: 80%
  ΔH: 41 kJ/mol

## C=C(C)C(=O)OC1CCCCC1OC(=O)C1CCCCC1 (centres unmarked) [Ex2, 2-(cyclohexylcarbonyloxy)cyclohexyl methacrylate]
  DBC: 85%
  ΔH: 43 kJ/mol

## C=C(C)C(=O)OC1CCCCC1OC(=O)C(C)(C)C (centres unmarked) [Ex3, 2-(isopropenylcarbonyloxy)cyclohexyl 2,2-dimethylpropionate]
  DBC: 85%
  ΔH: 43 kJ/mol

## C=C(C)C(=O)OC1CCCCC1OC(=O)Cc1ccccc1 (centres unmarked) [Ex4, 2-(benzylcarbonyloxy)cyclohexyl methacrylate]
  DBC: 72%
  ΔH: 37 kJ/mol

## C=C(C)C(=O)OCCO [Ref2, 2-hydroxyethylmethacrylate, reference compound]
  DBC: >99%
  ΔH: 52 kJ/mol
Listed as Reference 2
  DBC: > 99%

## Isobornyl methacrylate [Ref1, reference compound]
  DBC: 79%
  ΔH: 40 kJ/mol
Listed as Reference 1
  ΔH: ~ 40 kJ/mol
